Source: PubChem BioAssay AID493014 (National Center for Advancing Translational Sciences (NCATS), 2011)
The campaign covered roughly 340,000 compounds. About 170 (0.05%) were called active. This list was built around the results that the source calls inconclusive (neither active nor inactive); the mix of calls is not that of the screen. Calls come from the whole dose curve; as a rule, active = well fitted inhibition curve with a large enough effect in the signal ratio, with a control signal flat (not every such curve was filed as active); inconclusive = small, poorly fitted or top-dose-only effect, or effect the other way, or a change in a side signal; inactive = flat fitted curve, though single readings scatter; the % refers to the signal ratio. Potencies of inconclusive entries are doubtful fits and often do not repeat.

Experiment: qHTS Assay to Find Inhibitors of Chronic Active B-Cell Receptor Signaling;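 for activity change, negative = inhibition: plate controls were basal doxycycline-induced cells for no effect and cells given 10 µM MG132 for full effect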
Settings: ABC-DLBCL IkBa-CBG/CBR reporter, luminescence ratio (green luciferase fused to IkBa over red control in TMD8 lymphoma cells), 4 h; activity change, negative = inhibition: at 46.1 µM (top of the series)
Method in brief: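 Compounds up to 46 uM were incubated four hours with TMD8 cells whose green CBG68 luciferase is fused to IkappaBalpha; red CBR luminescence normalised the signal, and concentration-effect curves were fitted to fusion, red and ratio data.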
Potency is the fitted concentration of half-maximal effect.

Structure (SMILES) | activity change, negative = inhibition | Potency
O=C(C1=C[C@@H](C2CCCCC2)C[C@@H](OCc2ccc(CO)cc2)O1)N1CCOCC1 | inconclusive: -2.75% | –
COC(=O)CN1C(c2ccc(OC)cc2)=Nc2ccc(Cl)cc2C1c1ccccc1 (stereo not given) | inconclusive: -1.7% | –
COc1ccc(S(=O)(=O)NCC2CCCN(Cc3ccccc3Cl)C2)cc1 (stereo not given) | inactive: -9.22% | –
Cc1cc(C(=O)NC2CCCN(Cc3ccc(Cl)cc3)C2)c(C)o1 (stereo not given) | inactive: -0.169% | –
Cc1[nH]n(-c2ccccc2)c(=O)c1/C=N/NC(=O)c1ccoc1C | – | inconclusive: 6.51 µM [falling, partial curve]
O=C(COc1cc2oc(=O)c3c(c2cc1Cl)CCC3)NCCCn1ccnc1 | inconclusive: -1.33% | –
CCNC(=S)NNC(=O)c1cc(-c2cccc(C)c2)nc2ccccc12 | inconclusive: 3.62% | –
COc1cc2c(cc1NC(=O)COC(=O)/C=C/c1ccc([N+](=O)[O-])cc1)oc1ccccc12 | inconclusive: -2.55% | –
O=S(=O)(NCCc1ccccc1)c1cccs1 | inactive: -0.457% | –
CCN(CC(=O)Nc1ccc(OC)cc1)C(=O)CSCC(=O)Nc1cc(C)on1 | inactive: 1.68% | –
CSc1nc(Cc2ccccc2)nc2ccccc12 | inconclusive: 5.03% | –
O=C(COc1ccccc1Cl)N(Cc1ccco1)C1CCS(=O)(=O)C1 (stereo not given) | inactive: -9.96% | –
O=C(c1ccc(Cl)cc1)N1CCN(c2ccnc3cc(Cl)ccc23)CC1 | inconclusive: -1.88% | –
O=C(O)CCSc1nnc(COc2cccc3ccccc23)n1-c1cccc(Cl)c1 | – | inconclusive: 22.4 µM [falling, single point]
OC(c1cc(C(F)(F)F)nc2c(Cl)cc(Cl)cc12)C1CCCCN1 (stereo not given) | – | inconclusive: 8.91 µM [rising, partial curve, poor fit]
O=C(NCc1ccco1)c1c(F)c(F)c(F)c(C(=O)NCc2ccco2)c1F | inconclusive: -1.63% | –
Cn1c(=O)c2c(nc(NN=C3CCCCC3)n2C)n(C)c1=O | inconclusive: 13.2% | –
Cc1ccc(NCc2nnc(SCC(=O)N(Cc3ccccc3)C(C)(C)C)o2)c(C)c1 | inconclusive: 2.45% | –
CCOC(=O)C1CCN(Cc2cc(=O)oc3c(C)c(C)ccc23)CC1 | – | inconclusive: 10 µM [falling, partial curve]
CCN1CCN(c2ccc(S(=O)(=O)N3CCCCC3)cc2NC(=O)COc2ccccc2)CC1 | inactive: -9.34% | –

Structure (SMILES) | activity change, negative = inhibition | Potency
COc1ccc(C(=O)Nc2nc3ccc4nc(C)sc4c3s2)cc1 | – | inconclusive: 10.3 µM [falling, partial curve, poor fit]
Cc1ccccc1-c1n[nH]c(=S)n1/N=C/c1c(C)nn(-c2ccccc2)c1C | inactive: 3.41% | –
CCC(C(=O)O/N=C(\N)c1ccc(C)cc1)c1ccccc1 (stereo not given) | inconclusive: 14.6% | –
Cc1ccc(C(=O)NN=C2CCCCCC2)s1 | – | inconclusive: 11.2 µM [falling, partial curve, poor fit]
COc1cc(C2Nc3ccc4ncccc4c3C3=C2C(=O)CCC3)cc(OC)c1OC (stereo not given) | – | inconclusive: 35.5 µM [falling, single point]
O=C(O)CC/C(=N\NC(=O)c1ccc(F)cc1)c1ccc(Br)cc1 | – | inconclusive: 22.4 µM [falling, partial curve]
COc1ccc(/C=N/NC(=O)c2ccco2)cc1OCc1ccccc1 | inconclusive: -6.74% | –
COc1cc2c(cc1OC)CN(C(=O)c1ccc(OC)c([N+](=O)[O-])c1)CC2 | inactive: -14.8% | –
COc1cccc(-c2nnc(-c3ccc(C)o3)o2)c1 | inconclusive: -66.1% | –
CN(C)c1ccc(N=Cc2ccco2)cc1 | inconclusive: -15.3% | –
CC1CCCc2sc3nc(NCc4ccco4)n4ncnc4c3c21 (stereo not given) | – | inconclusive: 29.1 µM [rising, single point]
CCOC(=O)C1CCCN(C(=O)c2ccc(Cn3c(=S)[nH]c4cc(C(=O)OC)ccc4c3=O)cc2)C1 (stereo not given) | inactive: -19.2% | –
Cc1cccc(C(=O)Nc2ccccc2NC(=O)c2cccc(C)c2)c1 | inconclusive: -9.87% | –
CC(=O)c1ccc(S(=O)(=O)N2CCNC(=O)C2)cc1 | inconclusive: -2.54% | –
CCc1nnc(NS(=O)(=O)c2ccc(NC(=S)NC(=O)/C=C/c3ccc(OC)cc3)cc2)s1 | inactive: -4.25% | –
CCCCCCCN1C2=NCCCN2c2ccccc21 | – | inconclusive: 35.5 µM [falling, single point]
Nc1cc(=O)[nH]c(SCC(=O)Nc2ccc(Br)cc2)n1 | inconclusive: 15% | –
CC(=O)Nc1ccc(/C(C)=N/NC(=O)c2ccccc2Cl)cc1 | – | inconclusive: 20.6 µM [falling, single point]
Cc1ccc(C(=O)OCC(=O)NCc2ccco2)s1 | inconclusive: -7.74% | –
CC(=O)Nc1cc(O)cc(O)c1 | inconclusive: -7.74% | –

Sorted by molecular weight (ascending): part of the list above.
Structure (SMILES) | activity change, negative = inhibition | Potency
CC(=O)c1ccc(S(=O)(=O)N2CCNC(=O)C2)cc1 | inconclusive: -2.54% | –
COc1ccc(/C=N/NC(=O)c2ccco2)cc1OCc1ccccc1 | inconclusive: -6.74% | –
CCc1nnc(NS(=O)(=O)c2ccc(NC(=S)NC(=O)/C=C/c3ccc(OC)cc3)cc2)s1 | inactive: -4.25% | –
